Measurements reported in PubChem BioAssay AID1347423 (Functional Genomics Laboratory (NCATS/FGL), 2020).
Out of some 52,000 sequences screened, about 210 (0.4%) were called active.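 Rule for the calls: active = gene whose silencing raises cell survival under the drug, median off-target-corrected z-score across its silencing RNAs 2 or more; inactive = the rest.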 Some of the results follow.

Assay: Resistance to Poly (ADP-Ribose) Polymerase inhibitor: Gene Identification via Genome-wide siRNA Screen
Conditions: mouse BRCA2 R2336H ES cells, olaparib, CellTiter-Glo viability; stronger effect = higher value
Procedure, shortened: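 Mouse BRCA2 R2336H ES cells were reverse-transfected with siRNA (20 nM final), treated at 48 h with 500 nM olaparib, and read by CellTiter-Glo after 72 h. Scores: MAD-based z per siRNA, median per gene, seed off-target correction.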
With GGCUCAAAAAGAAAGAGUUTT against Myh2 the z-score was inactive: -0.441.
With CCUCAACACUCAGCUCAAUTT against Ifna14 the z-score was inactive: -1.13.
With GGUCCAAGUAGCUCUUCACTT against Olfr5 the z-score was inactive: 1.79.
With GCUCUCACAAGAUUGUUUCTT against Eapa2 the z-score was inactive: 0.578.
For CGAUGGUGAUUCCCAUGUUTT against Olfr996, the z-score was inactive: -0.114.
For “GGGAAAUCACCAUAUUUCCTT against 9030605H24Rik”, the z-score was inactive: -0.0686.
In the case of AGAAGUCCUCAAAAUGACCTT against V1rd20, the z-score is reported as inactive: -1.11.
In the case of “GCCAAACAUGGAGAGAGCATT against C630004H02Rik”, the z-score is reported as inactive: -2.56.
In the case of CCAGUGGAGUAAACUGUAATT against Ltbp1, the z-score is reported as inactive: 1.13.
With GGUCUUUUGUAAAAACCCUTT against Sytl2 the z-score was inactive: -0.0827.
For CGGCACUCGAAAGUUUUUATT against Rassf2, the z-score was inactive: 0.485.
For GGAGUUAUACAGGUUUAUGTT against Nup155, the z-score was inactive: -0.082.
In the case of GGGUUUGGACUGAUAUACUTT against Vrk2, the z-score is reported as inactive: -0.393.
In the case of CCAUGGUACUAAUGUAAAUTT against Eef1e1, the z-score is reported as inactive: 0.272.
With “GGAGGAGUAUGAAGAGCUGTT against 1200014M14Rik” the z-score was inactive: -1.99.
For GGCACUCAAUGGUGAGCAATT against Sipa1, the z-score was inactive: 0.847.
In the case of “GGAUAAGGACCUCUUCUCUTT against 2300004C15Rik”, the z-score is reported as inactive: -1.05.
For GGCAUUGCUGGACUUUGAATT against Mvp, the z-score was inactive: -2.8.
For GGUUAUCCACAUCUUCUCUTT against Mutyh, the z-score was inactive: 1.26.
With GCCCAUCUUAGCAUUCUCUTT against Aldh4a1 the z-score was inactive: -0.0534.
With GGCCUGGAUUCCUUAACAATT against Lgi1 the z-score was inactive: -1.52.
In the case of GGAGAAAAUUGCCUAUCUGTT against Tuft1, the z-score is reported as inactive: -0.19.
In the case of GCUCAUGACUUUUAGCGGCTT against Mif, the z-score is reported as inactive: 0.945.
With GCCUUUGAGUUUUAAGCCATT against Cobl the z-score was inactive: -1.15.
For GGACUAGAAAUUAGUACCATT against Klf15, the z-score was inactive: -1.35.
With GGGUGAAAGUUCAAGGUCUTT against Prss35 the z-score was inactive: 1.13.
In the case of GGUUUCCCUUUGUAUCAUGTT against Olfr1451, the z-score is reported as inactive: -0.791.
With GGACAAGAAGCAGGACAUCTT against Golga4 the z-score was inactive: -2.08.
With GGAGCAUCAGACAUUAGACTT against Pdcd2 the z-score was inactive: 0.585.
For GGGCAGAUGGAAGAGAUCATT against Onecut1, the z-score was inactive: 1.37.
For GCGAAGUGAAGACAUUGUATT against Calm2, the z-score was inactive: 1.31.
In the case of GACAUAUUUUCAUCACUGATT against V1rc16, the z-score is reported as inactive: 0.721.
For “GGUAAAUACUGUUUCUUAGTT against 2700023B17Rik”, the z-score was inactive: 0.498.
In the case of GGGUUUUAAGAAUCAGACUTT against Egfl3, the z-score is reported as inactive: 0.999.
For “GCCAUACUUUAAGAGUGUGTT against 9330161F08Rik”, the z-score was inactive: -1.73.
With GGUUAUUACACUCUACAAATT against Ceacam11 the z-score was inactive: -0.313.
In the case of GCUAACUUAGAUAUCCAGGTT against AW539457, the z-score is reported as inactive: -1.04.
With GGAAUAGAACGAAUUUCUGTT against Lsm11 the z-score was inactive: -0.0293.
In the case of GCCUAAGAACGAUGACACUTT against Surf2, the z-score is reported as inactive: 0.252.
In the case of GGGCUAGCAUCACAGUUUUTT against MGC67569, the z-score is reported as inactive: -0.729.
In the case of CGACAGUGUUAGCAUUAAATT against Pros1, the z-score is reported as inactive: 0.187.
With GCCUUUCUACUUAUUACCATT against Map3k7 the z-score was inactive: -0.634.
With GGUCUCCAUUUCUUUCUGCTT against C87860 the z-score was inactive: 0.953.
In the case of GGUACCGGAAAGGAAGUGUTT against Grm1, the z-score is reported as inactive: -0.666.
With GCUCAUGGACCAACCUAUGTT against Olfr1180 the z-score was inactive: -1.44.
For GGUUCUGGAAGGACAGGAATT against BC034054, the z-score was inactive: -2.9.
For GCGAAGACGGAAGCAUAUUTT against Noc4, the z-score was inactive: -2.07.
With GGAUUUGAAGAAAGAUGGATT against Gdd1 the z-score was inactive: 0.171.
For GCUCAGCAUAUUUGUACAUTT against Thbd, the z-score was inactive: 0.979.
With “GGCUGCUUAAGUGUAUCAGTT against 5730599I05Rik” the z-score was inactive: 0.661.
In the case of “GGACUAGAAUGUGACCUUGTT against 2210417J20Rik”, the z-score is reported as inactive: -1.24.
With GGAAGAACAAAAAACCAUGTT against Sf3b2 the z-score was inactive: -3.2.
For GGAGAUCACAGAAAAGUAUTT against Pex19, the z-score was inactive: -0.897.
For GUGACCUCAUCCAGAAAAUTT against V1ri8, the z-score was inactive: 2.04.
For GGAAAGUGAGGACAAAUAUTT against Cst8, the z-score was inactive: 0.838.
In the case of GGCCCACCGAGAGAAACUATT against Cpsf1, the z-score is reported as inactive: 0.154.
In the case of “GCUUUUUAUCCGUGUCGAUTT against 4930474N05”, the z-score is reported as inactive: 0.184.
For GGAUUUCUGGGACUCCACUTT against Tnfsf10, the z-score was inactive: 0.08.
In the case of “GGAAGAGAGCGAUUAAAUUTT against 1500011J06Rik”, the z-score is reported as inactive: -0.0424.
With GGUAUGGGAGAUGACUCUATT against C78212 the z-score was inactive: -2.46.
With UUUGAACAGUCACUCCUCGTT against BQ176089 the z-score was inactive: -0.239.
With GGUCUCCCUCUUCCAUAACTT against Klk10 the z-score was inactive: -0.526.
For GGCGGAAAAGUGUGCAAUATT against Cd244, the z-score was inactive: 0.488.
In the case of GGACAACUCCAAUUCCCUATT against Rasgrp2, the z-score is reported as inactive: 1.55.
With “CCUACAGCAACCAUAAGGATT against A930027K05Rik” the z-score was inactive: 1.26.
In the case of “GCGUAUUGAUAUAAGCUCUTT against D14Ertd171e”, the z-score is reported as inactive: -0.213.
In the case of GGAAAUGAGCCAGGAUGGUTT against Cdca4, the z-score is reported as inactive: 0.36.
